The nature of this experiment: qHTS Assay to Find Inhibitors of Chronic Active B-Cell Receptor Signaling. To be noted: ABC-DLBCL IkBa-CBG/CBR reporter, luminescence ratio (green luciferase fused to IkBa over red control in TMD8 lymphoma cells), 4 h. In a few lines: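 Cell line TMD8 (human ABC DLBCL), stably expressing tet-inducible CBG68-IkBa fusion and CBR; IMDM/0.5% FBS; cpd up to 46 uM; dox induction, 4 h, 37C/5% CO2; dual luminescence; green/red ratio; MG132 control.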

Where [1] appears, read: measured here: CBR red luminescence, cell number.
[2] abbreviates: measured here: IkBa-CBG green luminescence.

The other results are listed elsewhere or left out. These are further read-outs of the screen, such as a control signal, another cell line or another target. No call is given for them. Most of these compounds were active or inconclusive in the main read-out, so they are no random draw. The note in brackets gives the kind of curve behind each potency; many fits are weak.

On to `Cn1nc(C(F)(F)F)c2cc(NC(=O)OCC(C)(C)C)sc21`, for which, under setting [1], the AC50 is 35.5 µM [rising, partial curve, poor fit]. Turning to `CC(CCc1ccccc1)NC(=O)CSc1nc(N)cc(N)n1` (configuration not stated), the AC50 under setting [1] was 29.1 µM [rising, single point]. Same read-out and setting: in the case of `Cc1ccsc1C(=O)N/N=C/c1ccc2c(c1)OCO2` it was 0.184 µM [falling, full curve]; in that of `CCCCNS(=O)(=O)c1ccc2nc(SCC(=O)N3CC(C)OC(C)C3)[nH]c2c1` (configuration not stated), 5.17 µM [rising, single point]; in that of `CCC(=O)Nc1cccc(C2=NOC3(C2)C[C@H](C(N)=O)N(C(=O)Cc2ccc([N+](=O)[O-])cc2)C3)c1` (some centres not stated), 11.2 µM [rising, single point].

Regarding `COc1ccc(C2CC(c3ccc(OC)c(OC)c3)=NN2C(=O)c2ccccc2)cc1` (configuration not stated), the AC50 was 0.316 µM [rising, full curve, poor fit] under setting [1] and 10 µM [falling, partial curve] under setting [2]. `Cc1cc(C)c(C)c(S(=O)(=O)N[C@@H](C)C(=O)OC(C)C(=O)NC(N)=O)c1C` (some centres not stated): the AC50 under setting [1] is 6.31 µM [rising, partial curve, poor fit].

`C=C1CCN(CC(=O)OC)S(=O)(=O)c2ccccc21`: the half-maximal activity concentration (AC50) under setting [1] was 35.5 µM [rising, single point]. Same read-out and setting: in the case of `CCOc1cccc(C(=O)N/N=C/c2ccoc2)c1` it was 5.62 µM [falling, partial curve, poor fit]; in that of `COc1cccc(C(=O)Nc2ccc3c(c2)C(=O)NC3=O)c1`, 35.5 µM [falling, partial curve, poor fit]; in that of `Nc1ccc(N=Nc2ccccc2)c2ccccc12`, 12.6 µM [rising, partial curve]. Regarding `O=Nc1ccc(O)c2ncccc12`, the AC50 under setting [1] is 10 µM [falling, single point].

With `C(#Cc1ccc2c(c1)COc1c3ccccc3nn1-2)c1ccccc1`, the AC50 under setting [1] was 1.46 µM [rising, full curve, poor fit]. As to `Cc1ccc(S(=O)(=O)N(Cc2ccc(Cl)cc2)c2ccccc2C(=O)NCc2cccnc2)cc1`, the AC50 under setting [1] was 29.1 µM [falling, single point] and the AC50 under setting [2] was 32.6 µM [rising, partial curve, poor fit]. On to `COc1ccc(-c2nc3cc([N+](=O)[O-])ccc3o2)cc1OC`, for which the AC50 under setting [1] is 0.112 µM [rising, full curve, poor fit].

Regarding `O=C(c1ccc(-c2ccccc2)cc1)N1CCC(C(=O)N2CCCC2)CC1`, the AC50 under setting [1] is 23.1 µM [rising, partial curve, poor fit]. As to `Cc1ccc(NC(=O)COC(=O)c2ccc(F)cc2Cl)c(Br)c1`, the AC50 under setting [1] was 14.1 µM [rising, partial curve, poor fit]. Regarding `Cc1c(CN(C)C(=O)/C=C/c2ccc([N+](=O)[O-])cc2)cnn1C`, the AC50 under setting [1] is 6.51 µM [rising, partial curve, poor fit].

`Cc1ccc(C(=O)NCC(=O)OCCOc2ccccc2Cl)cc1`: the AC50 under setting [1] is 5.17 µM [rising, full curve]. For `O=C(c1cccnc1)C1Cc2ccccc2C1=O` (configuration not stated), the AC50 under setting [1] was 3.16 µM [rising, partial curve, poor fit]. Still for that read-out and setting: the same measure for `COc1ccc2sc(NC(=O)CC(C)C)nc2c1`: 14.1 µM [falling, partial curve]. For the compound `COc1cccc(-c2nc(N3CCN(Cc4ccccc4)CC3)c3ccccc3n2)c1O`, the AC50 under setting [1] was 35.5 µM [falling, partial curve, poor fit]. For the compound `Cc1c(C(=O)NCC2COc3ccccc3O2)oc2ccc(S(=O)(=O)N(C)C3CCCCC3)cc12` (configuration not stated), under setting [1], the AC50 was 29.1 µM [rising, single point]. The same measure, in the same setting: the same measure for `CC(C)NC(=O)c1ccc(OC2CSC2)cc1`: 6.31 µM [rising, single point]. For `Cc1ccc(/C=C/C(=O)N2CCc3ccccc32)o1`, the AC50 under setting [1] was 0.231 µM [rising, full curve, poor fit].

`CCn1c(=O)cc(SCC(=O)N2CCN(c3ccccn3)CC2)c2ccccc21`: the AC50 under setting [2] is 20.6 µM [falling, partial curve, poor fit]. Regarding `COc1cccc(NC(=O)CN(C)C(=O)c2cn(-c3ccccc3)nc2-c2cccnc2)c1`, the AC50 under setting [1] was 0.00461 µM [rising, full curve, poor fit].

For `CCn1c(O)c(/C=C2\C=Nc3ccccc32)sc1=O`, under setting [1], the AC50 is 1.78 µM [rising, full curve]. On to `O=C(O)c1ccc(N2C(=O)/C(=C/C=C/c3ccccc3)SC2=S)cc1`, for which, under setting [1], the AC50 is 3.16 µM [falling, full curve]. On to `Cc1cc(CNCc2cn(C)nc2-c2ccc(Oc3ccccc3)cc2)on1`, for which the AC50 under setting [1] was 15.8 µM [rising, partial curve, poor fit]. The same measure, in the same setting: the same measure for `COCCCNC(=O)Cn1nnc(-c2ccc(NC(=O)c3ccccc3OC)cc2)n1`: 6.31 µM [falling, partial curve, poor fit]. As for `COc1ccc(Cc2cc(NCc3ccccc3)c3ncn(C(C)C)c3c2)cc1`, the AC50 under setting [1] is 29.1 µM [falling, single point]. In the case of `C=CCOC(=O)C1=C[C@@H](c2ccc(Br)cc2)[C@H](CCCO)[C@@H](OCC)O1`, the AC50 under setting [1] is 0.1 µM [rising, full curve, poor fit]. The same measure, in the same setting: the same measure for `COC(=O)Cn1c(=NC(=O)c2cccc(OC)c2)sc2cc(OC)ccc21`: 4.11 µM [falling, full curve]; for `O=C(CN1CCOCC1)Nc1nc(-c2ccccc2)cs1`: 12.6 µM [falling, single point]. Take `CCCCNS(=O)(=O)c1ccc2nc(-c3cccnc3)cc(C(=O)NC3CCCC3)c2c1`: the AC50 under setting [1] was 1.12 µM [rising, partial curve, poor fit]. Consider `O=c1cc(-c2ccccc2Cl)oc2c(NS(=O)(=O)c3ccccc3OC(F)(F)F)ccc(O)c12`, for which the AC50 under setting [1] was 35.5 µM [falling, single point]. Turning to `CCOC(=O)c1sc(NC(=O)Nc2cccc(Cl)c2)cc1C`, the AC50 under setting [1] is 29.1 µM [falling, single point]. For `CNCCCC1Sc2ccccc2Oc2ccccc21` (configuration not stated), under setting [1], the AC50 is 10.3 µM [falling, partial curve, poor fit]. On the same count and under the same terms, the same measure for `CCOC(=O)Cn1c(=O)c(C#N)cn(C(C)C)c1=O`: 11.2 µM [rising, partial curve, poor fit]; for `COc1ccc(CN(CC(=O)NCC2CCCO2)C(=O)CCC(=O)Nc2nccs2)cc1` (configuration not stated): 1.41 µM [rising, full curve, poor fit]; for `COc1cccc(C(=O)Nc2ccc(F)cc2F)c1`: 23.1 µM [falling, partial curve, poor fit]. `CCCCN1C(=O)CC(C(=O)OCC)=C1C`: the AC50 under setting [1] was 5.62 µM [falling, single point]. As for `CC(=O)c1c(C)[nH]c(C(=O)CN2C(=O)NC(C)(c3ccc4c(c3)OCO4)C2=O)c1C` (configuration not stated), the AC50 under setting [1] is 11.2 µM [falling, partial curve, poor fit]. For the compound `Cc1ccc(-c2csc(N3CCN(c4cc5c(cc4Cl)nc(-c4ccncc4)n5CCOCCO)CC3)n2)cc1`, the AC50 under setting [1] was 3.16 µM [falling, partial curve, poor fit]. Consider `Cc1ccc(C)c(OCCOCCN2CC(C)OC(C)C2)c1C` (configuration not stated), for which the AC50 under setting [1] was 29.1 µM [rising, single point]. As for `C=CCn1c(SCC(=O)N2CCN(c3ccccc3)CC2)nnc1-c1ccco1`, the AC50 under setting [1] was 6.51 µM [rising, full curve, poor fit]. Turning to `CCOC(=O)/C(C#N)=C/NC(=O)NC(C)(C)C`, the AC50 under setting [1] was 6.51 µM [falling, partial curve, poor fit]. Same read-out and setting: in the case of `O=C(CC(=O)c1ccccc1)Nc1cccnc1` it was 18.4 µM [falling, partial curve]. Regarding `CC(C)(C)n1nc2c(c1NC(=O)Cc1cccs1)CSC2`, under setting [1], the AC50 is 20.6 µM [rising, single point].

As to `O=C(/C=C/Nc1ccc(F)c(F)c1)c1ccc(Br)cc1`, the AC50 under setting [1] was 8.2 µM [falling, partial curve]. With `CCN(CC)Cc1cc2[nH]c3c4ccc(Cl)cc4ncc3c2cc1OC`, the half-maximal activity concentration (AC50) under setting [1] was 8.91 µM [falling, partial curve, poor fit]. `N#CCn1c(C2CCCCC2)nc2ccccc2c1=O`: the AC50 runs as follows: under setting [1], 0.631 µM [rising, full curve, poor fit]; under setting [2], 7.94 µM [falling, partial curve, poor fit]. In the case of `COc1cc(OC)cc(C(=O)NC(=S)Nc2nc(-c3cc4ccccc4o3)cs2)c1`, the half-maximal activity concentration (AC50) under setting [1] is 0.112 µM [rising, full curve, poor fit]. On the same count and under the same terms, the same measure for `Cc1ccc(O)c(CNc2ccc(S(=O)(=O)Nc3nccs3)cc2)c1`: 0.708 µM [rising, partial curve, poor fit]; for `O=C(N1CCCC1)C(F)(F)Oc1ccc(F)cc1`: 25.1 µM [rising, single point]; for `Cc1[nH]n(-c2ccccc2)c(=O)c1/C=N/NC(=O)c1cccc(F)c1`: 5.01 µM [falling, full curve]. The same measure, in the same setting: the same measure for `CCNC(=O)N(C)C[C@H]1N[C@@](C)(C(=O)OC)[C@H]2C(=O)N(C)C(=O)[C@@H]12`: 25.9 µM [rising, single point].

Take `C=CC(=O)N=c1sc2ccccc2n1-c1ccccc1`: the AC50 is, setting by setting: under setting [1], 11.2 µM [falling, partial curve]; under setting [2], 17.8 µM [rising, single point]. As to `COc1ccc(OCc2nnc(SCC(=O)Nc3ccccc3Cl)o2)cc1`, the AC50 under setting [1] is 3.55 µM [falling, single point].

In the case of `Cc1ccccc1C(=O)OC1OC(=O)C(Cl)=C1N1CCOCC1` (configuration not stated), under setting [1], the AC50 is 16.4 µM [falling, partial curve, poor fit]. Consider `CCOC(=O)COc1ccc2cc(C(=O)OCC)c(=O)oc2c1`, for which the AC50 under setting [1] is 35.5 µM [rising, single point]. For `C/C(=N\NC(=O)CNc1cccc(C(F)(F)F)c1)c1cccc(Br)c1`, the AC50 under setting [2] is 16.4 µM [rising, partial curve, poor fit].

These data come from PubChem BioAssay AID493014 (National Center for Advancing Translational Sciences (NCATS), 2011).
